Primary screen of a compound library

Protein sequences, listed by entry. Tags and fused reporters are not part of them.
UniProt I6X8D2, whole entry: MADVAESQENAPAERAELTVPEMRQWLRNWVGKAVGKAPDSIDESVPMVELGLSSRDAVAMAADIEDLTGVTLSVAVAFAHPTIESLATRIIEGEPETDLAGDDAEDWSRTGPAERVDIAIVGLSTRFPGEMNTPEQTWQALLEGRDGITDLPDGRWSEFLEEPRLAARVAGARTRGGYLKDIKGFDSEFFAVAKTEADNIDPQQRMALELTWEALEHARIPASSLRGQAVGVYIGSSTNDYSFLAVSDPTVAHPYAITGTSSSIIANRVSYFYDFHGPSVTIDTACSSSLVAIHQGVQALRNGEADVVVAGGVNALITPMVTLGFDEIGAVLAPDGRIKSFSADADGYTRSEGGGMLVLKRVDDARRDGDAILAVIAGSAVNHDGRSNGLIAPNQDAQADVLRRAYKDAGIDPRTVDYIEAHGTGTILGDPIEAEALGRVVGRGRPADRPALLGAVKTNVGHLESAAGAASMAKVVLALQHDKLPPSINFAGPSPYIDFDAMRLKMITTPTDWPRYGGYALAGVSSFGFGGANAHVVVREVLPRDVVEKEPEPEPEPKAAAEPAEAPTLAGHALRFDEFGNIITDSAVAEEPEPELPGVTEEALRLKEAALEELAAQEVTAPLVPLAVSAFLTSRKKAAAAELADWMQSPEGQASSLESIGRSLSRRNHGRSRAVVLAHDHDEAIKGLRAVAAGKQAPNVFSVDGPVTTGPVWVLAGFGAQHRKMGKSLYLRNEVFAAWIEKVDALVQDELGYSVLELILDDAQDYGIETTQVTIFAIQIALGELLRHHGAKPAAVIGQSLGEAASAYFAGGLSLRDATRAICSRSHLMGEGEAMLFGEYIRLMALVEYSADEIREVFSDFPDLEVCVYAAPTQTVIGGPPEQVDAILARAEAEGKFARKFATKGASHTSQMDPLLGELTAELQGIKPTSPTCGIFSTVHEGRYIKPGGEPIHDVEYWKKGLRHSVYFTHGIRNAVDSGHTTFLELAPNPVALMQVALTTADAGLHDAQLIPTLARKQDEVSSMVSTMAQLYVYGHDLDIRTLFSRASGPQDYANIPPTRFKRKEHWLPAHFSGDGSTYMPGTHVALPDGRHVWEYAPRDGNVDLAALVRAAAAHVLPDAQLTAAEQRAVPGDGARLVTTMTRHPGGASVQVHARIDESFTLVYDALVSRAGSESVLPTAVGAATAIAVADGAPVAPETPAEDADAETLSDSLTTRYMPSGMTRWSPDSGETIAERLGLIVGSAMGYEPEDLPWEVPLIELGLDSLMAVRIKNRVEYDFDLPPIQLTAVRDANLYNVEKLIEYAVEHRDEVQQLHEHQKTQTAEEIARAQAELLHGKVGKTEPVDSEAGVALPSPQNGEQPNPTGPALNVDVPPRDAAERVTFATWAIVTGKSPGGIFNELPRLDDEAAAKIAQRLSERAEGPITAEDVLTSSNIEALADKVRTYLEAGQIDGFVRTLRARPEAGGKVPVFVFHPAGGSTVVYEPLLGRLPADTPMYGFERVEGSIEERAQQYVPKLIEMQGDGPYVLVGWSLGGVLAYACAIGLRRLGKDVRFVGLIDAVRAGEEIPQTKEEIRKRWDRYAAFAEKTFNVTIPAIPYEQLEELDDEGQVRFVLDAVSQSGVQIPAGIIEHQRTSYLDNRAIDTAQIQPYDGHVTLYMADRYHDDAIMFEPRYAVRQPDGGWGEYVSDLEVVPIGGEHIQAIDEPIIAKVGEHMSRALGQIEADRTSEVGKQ

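Polyketide synthase Pks13, Mycobacterium tuberculosis (UniProt I6X8D2). Enzyme assay of the thioesterase domain of polyketide synthase 13; the read-out is not stated. Concentration: 30 µM. Higher reads as stronger inhibition (inferred from which compounds were picked for retests). About 67,000 compounds were tested under these conditions; 0.46% (about 300) showed 50% or more at least once.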

Each number is a percent effect as filed. How 0% and 100% were set is not recorded. Most values in the screen are low, and negative values occur. The compounds are a random part of those screened.

COc1ccc(OC)c(C2SCC(=O)Nc3n[nH]cc32)c1 (centres unmarked) read -8.886%.
Cc1ccc(OCC(O)Cn2ncc3cnn(C)c(=O)c32)cc1 (centres unmarked) read -2.784%.
Cc1ccc(N2CCCC3(COCCN(c4ccccn4)C3)C2)nn1 (centres unmarked) read 0.9233%.
O=C1OCCN1CC(=O)N1C[C@H]2CC[C@@H]1CN(C(=O)c1cccnc1)C2 read 4.058%.
Fc1ccc(-c2cnc(CNC3CCc4ncnn4C3)o2)cc1 (centres unmarked) read 2.666%.
O=C(C1CCOC1)N1CCN(CC2CC2)c2ccccc21 (centres unmarked) read -1.18%.
Cc1cc(=O)[nH]c(-n2nc(-c3ccccc3)cc2N)n1 read -2.629%.
CC(NC(=O)C(C)(C)C#N)c1ccc(OCC2CC2)c(F)c1 (centres unmarked) read 0.7812%.
Cc1ccoc1C(=O)NC1CCN(CC(=O)N(C)c2ccccc2)CC1 read -4.418%.
CCc1ccc(NC(=O)N2Cc3c(CN(C)C)nn(C)c3C2)cc1 read -16.83%.
Cc1nn(C)c(N(C)C)c1CNCCS(C)(=O)=O read -12.48%.
CN(C)Cc1cc(=O)n2c(n1)CN(CC1CC1)CCC2 read -4.524%.
CC(c1ccncn1)N(C)S(=O)(=O)NCc1ccccc1 (centres unmarked) read 49.45%.
CN(Cc1ccncc1)Cc1nccn1Cc1ccccc1 read -24.47%.
Cn1cc(C2CC(=O)NC23CCN(C(=O)Cc2ccccn2)CC3)cn1 (centres unmarked) read -15.63%.
CNC(=O)[C@@H]1C[C@@H](N)CN1C1CCN(Cc2ccccn2)CC1 read -3.659%.
Cc1nn(C)c(N(C)C)c1CNCc1ccccc1Cn1cncn1 read -11.18%.
COCCn1nc(C(=O)N(C)Cc2cnn(C)c2)ccc1=O read -14.44%.
CNC(=O)C1(CCCc2ccncc2)CCCN1 (centres unmarked) read -33.35%.
Cc1nsc(NC2CC(=O)N(C(C)(C)C)C2)n1 (centres unmarked) read -18.88%.
CCS(=O)(=O)N1CCCn2c(nc(CN3CCCC3)cc2=O)C1 read -0.3848%.
O=C(CCOc1ccccc1)N1CCC(Nc2cccnn2)CC1 read -10.94%.
CCc1cnc(N2C[C@H]3C[C@H](C(=O)N4CCOCC4)[C@@H](C2)O3)nc1 read -44.27%.
Cc1cnn(CC2CN(Cc3nc(-c4ccccn4)no3)CCO2)c1 (centres unmarked) read 2.339%.
CN(Cc1ccc(Cl)s1)C(=O)c1cccc(OCC(N)=O)c1 read 2.785%.
CCOCC(=O)N1CCC(Oc2ccc(Cl)cn2)CC1 read -11.64%.
Cc1ccc(CN2CCC3(CC2)CC(CC(=O)NC(C)C)CO3)s1 (centres unmarked) read -12.5%.
COCCCn1c(CN2CCCCO2)cnc1S(=O)(=O)C1CCCC1 read -3.151%.
Cc1nn(C)c(C)c1-c1c(-c2ccccc2)ncn1[C@H](CO)C(=O)O read -11.28%.
CC(C(=O)Nc1ccccn1)n1ccc(C(F)(F)F)n1 (centres unmarked) read -4.275%.
CN(C)CCOc1ccc(CNC(=O)c2cccc(Cl)c2Cl)cc1 read -0.6953%.
Cn1cc(C2CCCN2Cc2csc(C(C)(C)C)n2)cn1 (centres unmarked) read -21.3%.
COc1cc(C2CC(=O)Nc3c2c(=O)[nH]n3C2CCCC2)ccc1O (centres unmarked) read 2.953%.
Cc1nn(C)c(Cl)c1C1CCCN1C(=O)c1cc(Cl)c[nH]1 (centres unmarked) read -14.75%.
Cc1nn(C)c(N(C)C)c1CNCc1ccc(Cn2cccn2)cc1 read -3.246%.
O=C1C(Sc2nc(=O)ccn2C2CC2)CCN1c1ccccc1 (centres unmarked) read -2.489%.
COc1cccc2c1OCC(Cc1cc(C(=O)N3CCCC3)ccn1)C2 (centres unmarked) read -21.66%.
OCCN1CCOC2(CCCN(c3cccc(F)c3)C2)C1 (centres unmarked) read -38.98%.
Cc1csc(CCNc2ccc(C#N)cn2)n1 read 2.604%.
O=C(c1ccsc1)N1CCC2(CCN2Cc2ccc(F)cc2)C1 (centres unmarked) read -9.708%.
CCN(Cc1ccc(Cl)s1)S(=O)(=O)CCOC read -14.29%.
COCCN1C(=O)C[C@H]2[C@H]1CCN2C(=O)c1ccc[nH]1 read -19.12%.
COC(=O)c1cc(OCC2CCC2)cc(C(=O)NCC(C)(C)O)c1 read 8.33%.
O=C(c1ccc(C2CCNC2)cc1)N1CCC(N2CCC(O)CC2)CC1 (centres unmarked) read 0.1251%.
CCc1ccsc1CNC(=O)CNC(=O)C(C)(C)C read -3.528%.
CC(CN1CCOCC1)n1cncc1-c1cnn(Cc2ccccc2)c1 (centres unmarked) read -21.8%.
Cn1cc(C(O)CNC(=O)c2cc(Br)ccc2Cl)cn1 (centres unmarked) read -8.555%.
Cn1cc(CCCNS(=O)(=O)N2CCCC2c2ccco2)cn1 (centres unmarked) read -31.02%.
Cc1nnc2n1CCN(C(=O)c1cn(-c3ccccc3Cl)nn1)C2 read 3.948%.
F[C@@H]1CN(CC2CC2)C[C@@H]1OCc1nc2ccc(C(F)(F)F)cc2[nH]1 read 12.25%.
Cc1cccc(C)c1OCC(O)CNCc1c(C)nn(C)c1N(C)C (centres unmarked) read -41%.
O=C(c1ccccn1)N1CCC2(CC1)C(=O)Nc1ccccc12 read -22.47%.

The first 3 entries again:

{"smiles": "COc1ccc(OC)c(C2SCC(=O)Nc3n[nH]cc32)c1", "stereo": "centres unmarked", "percent effect": -8.886}
{"smiles": "Cc1ccc(OCC(O)Cn2ncc3cnn(C)c(=O)c32)cc1", "stereo": "centres unmarked", "percent effect": -2.784}
{"smiles": "Cc1ccc(N2CCCC3(COCCN(c4ccccn4)C3)C2)nn1", "stereo": "centres unmarked", "percent effect": 0.9233}

Measurements from “University of Dundee, Small-Polar-MMV Screening Library” (2021), ChEMBL document CHEMBL3988442.